US20070078116A1, “Method of treatment of otitis externa” (Fairfield Clinical Trials, LLC, priority 2003, published 2007)
At least one structure is not confirmed: it was looked up by name or label, or the drawing left a doubt.

Columns and labels:
[1] = test system: Candida albicans (ATCC 90028); experiment: Filter paper disk test on agar plates containing C. albicans; type: cell-based; conditions: 5 μL or 10 μL on paper disk, 37° C., 24-72 hours
Procedure: (§1) Candida albicans (ATCC 90028) and Aspergillis fumigatus (ATCC 16424) were tested in vitro for the effect of antifungal compositions according to embodiments of the invention. Fungal cells were obtained from the American Type Culture Collection.
(§2) C. Albicans yeast cells were grown in YM broth (Difco™ 0711-01) containing the following ingredients: 1% peptone, 1% yeast extract and 2% glucose. The cells were grown at 37° C., harvested by centrifugation, resuspended in the same medium and stored frozen at −80° C. The cells were used at a concentration of about 1×10^6 cells/mL. A. fumigatus was cultured on solid MPG containing 20 g/L malt extract (Difco™ 21860); 1 g/L Difco™ 211677); 20 g/L sucrose and 15 g/L Bacto-agar (Difco™ 140-07-04) in water, at 37° C. for 7 to 10 days. Conidia were harvested by flooding the medium with sterile water, filtered through glass wool to exclude hyphal fragments, washed by centrifugation (5000 xg for 10 minutes at 4° C., resuspended at about 1×10^6 conidia/mL in water and stored at −80° C. until used.
(§3) For testing, A. fumigatus conidia and C. albicans cells were thawed. […]
(§4) Samples (5 μL, 10 μL or 20 μL as indicated in the Figures) of liquid drug formulation were placed on sterile filter paper disks and the disks allowed to air dry 15-30 minutes at room temperature in a Class II biosafety hood. […] A portion of each sample was analyzed for potency. […]

[2] = test system: fungal otitis externa; experiment: Clinical testing in human patients diagnosed with otitis externa; type: in vivo; conditions: 1% solution, four drops in affected ear twice daily for 10 days
[3] = test system: Aspergillis fumigatus (ATCC 16424); experiment: Filter paper disk test on agar plates containing A. fumigatus (zone of killing); type: cell-based; conditions: 5 μL or 10 μL on paper disk, 37° C., 24-72 hours
Procedure: as §1, §2, §3, §4

Question: Which “killing of C. albicans (visual observation of plates)” value [1] does the source give for `CCC(C)n1ncn(-c2ccc(N3CCN(c4ccc(OCC5COC(Cn6cncn6)(c6ccc(Cl)cc6Cl)O5)cc4)CC3)cc2)c1=O` (stereo not drawn) [Itraconazole, itraconazole] here?
Answer: highly active

Question: And the “Result (clinical outcome)” value ([2]; fungal etiology A. flavus)?
Answer: Cure

Question: What about the “Result (clinical outcome)” value ([2]; fungal etiology A. niger) of the same compound?
Answer: Fail and Cure

Question: What about the “Result (clinical outcome)” value ([2]; fungal etiology C. albicans) of the same compound?
Answer: Cure

Question: And the “Result (clinical outcome)” value ([2]; fungal etiology C. parapsilosis)?
Answer: Cure

Question: And the “killing of A. fumigatus (visual observation of plates)” value [3]?
Answer: highly active
